This experiment concerns the target T1, S. cerevisiae Tip20 (S. cerevisiae) (UniProt P33891).
T1 sequence: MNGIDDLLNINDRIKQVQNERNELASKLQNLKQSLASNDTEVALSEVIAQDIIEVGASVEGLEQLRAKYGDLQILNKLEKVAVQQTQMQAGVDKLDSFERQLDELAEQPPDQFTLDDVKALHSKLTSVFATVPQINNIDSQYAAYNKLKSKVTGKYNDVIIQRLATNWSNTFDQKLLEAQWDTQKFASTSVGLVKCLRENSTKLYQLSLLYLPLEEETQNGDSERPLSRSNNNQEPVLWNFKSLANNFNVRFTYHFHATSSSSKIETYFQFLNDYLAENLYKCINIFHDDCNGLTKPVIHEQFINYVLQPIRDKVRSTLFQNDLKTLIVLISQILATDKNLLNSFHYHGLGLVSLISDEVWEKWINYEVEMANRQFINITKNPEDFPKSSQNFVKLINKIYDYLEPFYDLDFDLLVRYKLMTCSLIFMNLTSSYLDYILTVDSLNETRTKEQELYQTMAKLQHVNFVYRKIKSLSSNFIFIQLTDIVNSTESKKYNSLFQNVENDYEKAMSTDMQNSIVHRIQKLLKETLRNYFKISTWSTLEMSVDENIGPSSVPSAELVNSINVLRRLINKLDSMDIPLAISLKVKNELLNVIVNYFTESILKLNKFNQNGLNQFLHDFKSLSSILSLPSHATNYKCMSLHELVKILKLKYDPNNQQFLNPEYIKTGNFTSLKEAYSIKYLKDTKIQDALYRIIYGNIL
Description: ITC. For orientation: In ITC the heat of successive injections is recorded.

These are yes or no findings as the source states them, for the method shown. Some results given as binding are weak or reduced against the parent protein; the word gives no strength.

B1: S. cerevisiae Sec20_(1-174) (domain or fragment, UniProt P28791 1-174, looked up)
chain: MVVTFLQDLEVLQDALLNNLQKLSAISRRKESGESKHDNKDSFAAIANEHNDEEEEIEFEDLVNIIESKVSDFESVLKCSIVEMTYKYPELKLQWEKSPRYDQCDKLHIVKLDKQMNEDIYAQLVEELDFVLQFVDWFYCYRLKVKEILRQHHKRDLAWNDEKRDRAIKFHAVD
B1: the binding result was “binds”.
